Measurements taken from US20200165572A1, “ENGINEERED SUBSTRATES FOR HIGH-THROUGHPUT GENERATION OF 3D MODELS OF TUMOR DORMANCY, RELAPSE AND MICROMETASTASES FOR PHENOTYPE SPECIFIC DRUG DISCOVERY AND DEVELOPMENT” (Arizona Board of Regents on behalf of Arizona State …, priority 2015, published 2020).
Entries after “also recorded” stand apart in the source; their conditions may differ.

System: NIH3T3-T24 3DTMs
Assay: Drug penetration into 3DTMs (fluorescence microscopy)
Format: cell-based, human, murine
Details: 24 hours

SMILES: O=C1c2c(O)ccc(O)c2C(=O)c2c(NCCNCCO)ccc(NCCNCCO)c21 [mitoxantrone]
- drug penetration into 3DTM: permeation throughout; also recorded: complete penetration
